Laboratory results reported in patent US20230265190A1.
These are yes or no findings as the source states them, for the method shown. Some entries that bind do so weakly or less than the wild type. Blank lines part the entries; values can stand above or below the binder they belong to.

Sequences of proteins named here, by UniProt entry; tags and fusion partners are left off. Residues count along the entry.
UniProt P06729, residues 25-209: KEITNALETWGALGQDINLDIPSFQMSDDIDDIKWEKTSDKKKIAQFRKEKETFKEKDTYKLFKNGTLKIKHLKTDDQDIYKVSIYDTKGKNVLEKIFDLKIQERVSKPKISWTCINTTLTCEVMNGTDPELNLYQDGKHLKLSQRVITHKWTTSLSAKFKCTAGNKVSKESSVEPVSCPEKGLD

Assays:
[1] = biological target: fluorescently tagged ectodomain of CD2 (UniProt P06729); test: flow cytometry, fluorescently tagged CD2 ectodomain on transfected cells
[2] = biological target: fluorescently tagged ectodomain of CD2 (UniProt P06729); test: flow cytometry, fluorescently tagged CD2 ectodomain on cells transfected with the device mRNA

binding [1]: binds
binding [2]: binds
B1: hIEE-Fv(+)22 (protein)
chain: DVVMTQSPPSLLVTLGQPASISCRSSQSLLHSSGNTYLNWLLQRPGQSPQPLIYLVSKLESGVPDRFSGSGSGTDFTLKISGVEAEDVGVYYCMQFTHYPYTFGQGTKLEIKGGGGSGGGGSGGGGSQVQLVQSGAEVKKPGASVKVSCKASGYTFTEYYMYWVRQAPGQGLELMGRIDPEDGSIDYVEKFKKKVTLTADTSSSTAYMELSSLTSDDTAVYYCARGKFNYRFAYWGQGTLVTVSSGGGSKHTPKLEIKVTPSDAIVREGDSVTMTCEVSSSNPEYTTVSWLKDGTSLKKQNTFTLNLREVTKDQSGKYCCQVSNDVGPGRSEEVFLQVQYAPEPSTVQILHSPAVEGSQVEFLCMSLANPLPTNYTWYHNGKEMQGRTEEKVHIPKILPWHAGTYSCVAENILGTGQRGPGAELDVQYPPKKVTTVIQNPMPIREGDTVTLSCNYNSSNPSVTRYEWKPHGAWEEPSLGVLKIQNVGWDNTTIACAACNSWCSWASPVALNVQYAPRDVRVRKIKPLSEIHSGNSVSLQCDFSSSHPKEVQFFWEKNGRLLGKESQLNFDSISPEDAGSYSCWVNNSIGQTASKAWTLEVLYAPRRLRVSMSPGDQVMEGKSATLTCESDANPPVSHYTWFDWNNQSLPYHSQKLRLEPVKVQHSGAYWCQGTNSVGKGRSPLSTLTVYYSPETIGRRVAVGLGSCLAILILAICGLKLQRRWKRTQSQQG

binding [1]: binds
binding [2]: binds
B2: hIEE-Fv(+)RO (protein)
chain: DVVMTQSPPSLLVTLGQPASISCRSSQSLLHSSGNTYLNWLLQRPGQSPQPLIYLVSKLESGVPDRFSGSGSGTDFTLKISGVEAEDVGVYYCMQFTHYPYTFGQGTKLEIKGGGGSGGGGSGGGGSQVQLVQSGAEVKKPGASVKVSCKASGYTFTEYYMYWVRQAPGQGLELMGRIDPEDGSIDYVEKFKKKVTLTADTSSSTAYMELSSLTSDDTAVYYCARGKFNYRFAYWGQGTLVTVSSGGGSQSPTPSPTDAYLNASETTTLSPSGSAVISTTTIATTPSKPTCDEKYANITVDYLYNKETKLFTAKLNVNENVECGNNTCTNNEVHNLTECKNASVSISHNSCTAPDKTLILDVPPGVEKFQLHDCTQVEKADTTICLKWKNIETFTCDTQNITYRFQCGNMIFDNKEIKLENLEPEHEYKCDSEILYNNHKFTNASKIIKTDFGSPGEPQIIFCRSEAAHQGVITWNPPQRSFHNFTLCYIKETEKDCLNLDKNLIKYDLQNLKPYTKYVLSLHAYIIAKVQRNGSAAMCHFTTKSAPPSQVWNMTVSMTSDNSMHVKCRPPRDRNGPHERYHLEVEAGNTLVRNESHKNCDFRVKDLQYSTDYTFKAYFHNGDYPGEPFILHHSTSYNSKALIAFLAFLIIVTSIALLVVLYKIYDLHKKRSCN

binding [1]: binds
binding [2]: binds
B3: hIEE-Fv(+)ABC (protein)
chain: DVVMTQSPPSLLVTLGQPASISCRSSQSLLHSSGNTYLNWLLQRPGQSPQPLIYLVSKLESGVPDRFSGSGSGTDFTLKISGVEAEDVGVYYCMQFTHYPYTFGQGTKLEIKGGGGSGGGGSGGGGSQVQLVQSGAEVKKPGASVKVSCKASGYTFTEYYMYWVRQAPGQGLELMGRIDPEDGSIDYVEKFKKKVTLTADTSSSTAYMELSSLTSDDTAVYYCARGKFNYRFAYWGQGTLVTVSSGGGSQSPTPSPTGLTTAKMPSVPLSSDPLPTHTTAFSPASTFERENDFSETTTSLSPDNTSTQVSPDSLDNASAFNTTGVSSVQTPHLPTHADSQTPSAGTDTQTFSGSAANAKLNPTPGSNAISDVPGERSTASTFPTDPVSPLTTTLSLAHHSSAALPARTSNTTITANTSDAYLNASETTTLSPSGSAVISTTTIATTPSKPTCDEKYANITVDYLYNKETKLFTAKLNVNENVECGNNTCTNNEVHNLTECKNASVSISHNSCTAPDKTLILDVPPGVEKFQLHDCTQVEKADTTICLKWKNIETFTCDTQNITYRFQCGNMIFDNKEIKLENLEPEHEYKCDSEILYNNHKFTNASKIIKTDFGSPGEPQIIFCRSEAAHQGVITWNPPQRSFHNFTLCYIKETEKDCLNLDKNLIKYDLQNLKPYTKYVLSLHAYIIAKVQRNGSAAMCHFTTKSAPPSQVWNMTVSMTSDNSMHVKCRPPRDRNGPHERYHLEVEAGNTLVRNESHKNCDFRVKDLQYSTDYTFKAYFHNGDYPGEPFILHHSTSYNSKALIAFLAFLIIVTSIALLVVLYKIYDLHKKRSCN
